# Library screen at single concentrations

Measurements from “University of Dundee, Small-Polar-MMV Screening Library” (2021), ChEMBL document CHEMBL3988442.

Each number is a percent effect as filed.
How 0% and 100% were set is not recorded. Most values in the screen are low, and negative values occur.
This is an unselected part of the compounds tested.

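Whole-parasite assay of Trypanosoma brucei over 72 hours; the read-out is not stated. Concentration: 30 µM. The record gives no direction; compounds that gave an IC50 in retests scored well above the rest, so higher reads as stronger inhibition. Values scatter widely below zero; nearly all retest evidence comes from the higher of the two concentrations used. Size under these conditions: about 64,000 compounds, about 940 of them at 50% or above in at least one test.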

SMILES	Percent Effect
O=C(Cc1cnccn1)N1CCC(c2nccn2CC2CC2)CC1	-11.17
CN1CC(=O)N(c2ccccc2)CC12CCN(S(C)(=O)=O)C2.O=C(O)C(F)(F)F (configuration not stated)	-9.685
Cc1ccnc(NC(=O)c2ccc(C)o2)c1	-13.23
c1cnnc(N2CCCC(NCc3nc(-c4cccs4)no3)C2)c1 (configuration not stated)	10.27
Cc1nnc(CN(C)CC2CCCCC2)o1	-31
Cc1nc(C)c(CC(=O)Nc2nnc(C)s2)c(=O)[nH]1	2.614
CC(C)(O)C1CCCN(C(=O)Nc2nc(-c3ccccc3)ns2)C1 (configuration not stated)	-240.6
Cc1cc(C(=O)Nc2ccc(OC3CCOCC3)c(C)c2)[nH]n1	-0.9829
O=C(NCCC1=CCCCC1)c1ccc(-n2cccc2)nc1	-13.4
CCCN(CC1COc2ccccc2O1)C(=O)C1=NN(C)C(=O)CC1 (configuration not stated)	-53.46
N#Cc1ncn(CCC(=O)Nc2ccc(Cl)cc2F)n1	-33.61
O=C(O)C(F)(F)F.[H][C@@]12CCN(CCc3ccccc3)[C@]1([H])CC[C@@H](C(=O)NC1CCC1)O2	-50.65
CCNc1nc(C)c(C(=O)N2CCN(c3ncccc3C)CC2)s1	1.493
O=C(c1sccc1-n1cnnn1)N1CCC2(CCCCC2)CC1	-10.78
[H][C@]12CC[C@]([H])(CN(Cc3ccc(Cl)cc3)C1)N(Cc1c(C)noc1C)C2=O	-20.11
[H][C@@]12CN(S(=O)(=O)c3ccccc3)C[C@]1([H])OCC(=O)N2Cc1ccccn1	-4.37
CN(Cc1nc2ccccc2[nH]1)C(=O)CN(C)c1ccccc1	-13.3
Cc1noc(C)c1CSC1CCCN(c2cnn(C)c2)C1=O (configuration not stated)	-24.29
Cc1ccc(-c2nc(CN3CCOCS3(=O)=O)c(C)o2)cc1	-81.72
C[S+]([O-])c1cccc(NC(=O)N[C@H](CCO)c2ccccc2)c1 (some centres not stated)	-21.28
COc1cccc2c1N(Cc1noc(C3CC3)n1)CCC2	-58.26
CN(C)C(=O)Cc1nc(CN2CCn3c(nnc3C3CC3)C2)cs1	-14.83
O=C(c1cc(F)ccc1O)N1CCN(C2CCOCC2)CC1	7.996
CCCN(Cc1cnn(C)c1)S(=O)(=O)c1cc(C)cc(F)c1	-55.36
Cc1nnc(CN(C)C2CCN(CCc3ccccn3)CC2)o1	-13.62
CCc1nc2c(s1)C(N(C)C(C)=O)CCC2 (configuration not stated)	-0.385
COCCN1CCC(Nc2c(F)cc(C#N)cc2F)CC1	-6.235
O=C(NC[C@H]1OC[C@@H](NC2CCCCC2)[C@@H]1O)Nc1ccccc1	-43.81
Cc1cc(C)nc(N2CCC(c3ccnc(N(C)C)n3)CC2)n1	-14.13
CCOCCC(=O)N1CCCN(c2ccccc2C)CC1	-19.32
CCOc1ccccc1C(=O)N1CCCC(c2nccn2CCOC)C1 (configuration not stated)	-30.97
Cc1c(NCc2ccccc2C#N)cccc1S(=O)(=O)NC1CC1	-10.84
Cc1ccc(CN2CCN(C(=O)c3ccc(CO)cc3)C(C)C2=O)cc1 (configuration not stated)	-16.94
CC(=O)N1CCOC2(CCCN(C(=O)CCN3CCCCC3)C2)C1 (configuration not stated)	-25.8
N#Cc1ccc(Nc2nc3c(s2)C(=O)CN(CC2CC2)C3)cc1	-11.92
[H][C@]12CC[C@]([H])(CN(Cc3cscn3)C1)N(C(=O)c1cccc(OC)c1)C2	-1.998
CCc1ccc(S(=O)(=O)Nc2ccncc2)s1	-26.47
CCn1nc(C)c(CNC(=O)c2nnc3ccc(Cl)cc3n2)c1C	-49.69
CCCc1nc(CN2CCOC(Cn3cncn3)C2)no1 (configuration not stated)	-1.906
O=C(O)C(F)(F)F.O=C(O)C(F)(F)F.O=C(O)C(F)(F)F.c1ccc(CN2CCC3(CC2)CCN(Cc2cccs2)C3)nc1	-6.808
COc1cccc(CNC(=O)c2ccccc2-n2cnc(CN)c2)c1	7.365
CCCNC(=O)COc1ccc(-c2ccccc2)nc1	9.346
CSCc1noc(-c2ccc(C)c(N3CCNC3=O)c2)n1	-75.77
Cc1nnc2ccc(N3CCC(C(=O)Nc4nccs4)CC3)nn12	0.472
CCNC(c1ccc(CC)cc1)c1cccnc1 (configuration not stated)	8.099
CN(C)CCCn1ccnc1C1CCN(c2cccc(C(=O)O)n2)CC1	-15.03
O=C1NCC(C(=O)Nc2ncc(Cc3ccc(F)cc3)s2)N1 (configuration not stated)	14.24
CC(=O)N1CCC2(CC1)CN(C(=O)[C@@H]1CSCN1)c1ccc(Cl)cc12.O=C(O)C(F)(F)F	-10.07
Cc1nc(C2CCCN(C(=O)C(C)(C)n3cc(Cl)cn3)C2)no1 (configuration not stated)	11.87
CC(NC(=O)C1CC1)C(=O)N(C)Cc1ccsc1 (configuration not stated)	-9.588
CC(=O)N1CCCC(c2nc(N(C)C)ncc2-c2ccccc2)C1 (configuration not stated)	-19.2
CCS(=O)(=O)N1CCC(Nc2ccc(C#N)cc2F)CC1	-7.336
CC(NC(=O)NCC1(c2ccc(Cl)cc2)CC1)c1nncn1C (configuration not stated)	-18.67
Cc1cnc(CNc2ccc(C(=O)NCc3ccco3)cc2C)o1	-13.25
O=C(O)CCc1cc2n(n1)CCN(Cc1cnc(N3CCCC3)nc1)C2	-14.93

6 of the entries, repeated:

CCCNC(=O)COc1ccc(-c2ccccc2)nc1 read 9.346%.
[H][C@]12CC[C@]([H])(CN(Cc3ccc(Cl)cc3)C1)N(Cc1c(C)noc1C)C2=O read -20.11%.
Cc1noc(C)c1CSC1CCCN(c2cnn(C)c2)C1=O (configuration not stated) read -24.29%.
N#Cc1ncn(CCC(=O)Nc2ccc(Cl)cc2F)n1 read -33.61%.
CCn1nc(C)c(CNC(=O)c2nnc3ccc(Cl)cc3n2)c1C read -49.69%.
[H][C@@]12CN(S(=O)(=O)c3ccccc3)C[C@]1([H])OCC(=O)N2Cc1ccccn1 read -4.37%.